We go through 5 compounds from US20120214193A1, “METHOD FOR MEASUREMENT OF FLUORESCENCE INTENSITY OF VOLTAGE-SENSITIVE FLUORESCENT DYE” (Keio University, priority 2009, published 2012).

Data set [1] is described as follows: Fluorescent intensity of potential-sensitive fluorochromes forming a solid phase on a substrate surface, potassium chloride added, no membrane carrier. To be noted: for fluorescent intensity versus concentration of added potassium chloride (FIG. 1): 50 μM fluorochrome on plastic or glass dish, KCl 0, 5, 10, 15, 20 mM; for changes in fluorescent intensity versus concentration of added potassium chloride (FIG. 2): 10 μM and 100 μM fluorochrome on plastic dish, KCl 0-20 mM.

Data set [2] in a line: Screening for enhancers of fluorescent intensity and potential-dependent percent change in fluorescent intensity (sensitivity) using solid-phase fluorochrome.
[3] abbreviates: 100 μM Di8-ANEPPS, vitamin E 18.7 μM to 500 μM, KCl 0-50 mM.

`CCCCN(CCCC)c1ccc2cc(/C=C/c3cc[n+](CCCS(=O)(=O)[O-])cc3)ccc2c1` [Di4-ANEPPS]: in data set [1], the “fluorescent intensity versus concentration of added potassium chloride (FIG. 1)” value is “the fluorescent intensity increased in proportion to the concentration of the added ionizing compound”.
Turning to `CCCCCCCCN(CCCCCCCC)c1ccc2cc(/C=C/c3cc[n+](CCCS(=O)(=O)[O-])cc3)ccc2c1` [Di8-ANEPPS], in data set [1], the “changes in fluorescent intensity versus concentration of added potassium chloride (FIG. 2)” value was “changes in the fluorescent intensity occurred in proportion to the concentration of the added ionizing compound” and the “fluorescent intensity versus concentration of added potassium chloride (FIG. 1)” value was “the fluorescent intensity increased in proportion to the concentration of the added ionizing compound”.
With `CCCCN(CCCC)c1ccc(/C=C/C=C/C=C/c2cc[n+](CCCCS(=O)(=O)[O-])cc2)cc1` [RH237], the “changes in fluorescent intensity versus concentration of added potassium chloride (FIG. 2)” value in data set [1] was “changes in the fluorescent intensity occurred in proportion to the concentration of the added ionizing compound”.
`CC(C)CCC[C@@H](C)[C@H]1CC[C@H]2[C@@H]3CC=C4C[C@@H](O)CC[C@]4(C)[C@H]3CC[C@]12C` [cholesterol]: the “fluorescent intensity (FIG. 4)” value in data set [2] (100 μM Di8-ANEPPS, cholesterol 18.8 μM or 238 μM, KCl 0-50 mM) is reported as “enhanced the fluorescent intensity in a dose-dependent manner”. For the same compound, in data set [2] (Di8-ANEPPS, additive 75 μM (figure legend 18.75 μM), KCl 0-20 mM), the “fluorescent intensity (FIG. 3(b))” value is given as “have the action for enhancing the fluorescent intensity”.
Take vitamin E: in data set [2] (setting [3]), the “increase of fluorescent intensity (FIG. 4)” value was “about 1.5 times” and the “increase of percent change in fluorescent intensity (FIG. 4)” value was “about 3 times”.
